In publication PMC4455066:
These are yes or no findings as the source states them, for the method shown. Binding seen in cells or lysates may run through a third protein. Here binding means that the protein was enriched with, or labelled near, the bait; the list need not be complete. For some of these results: Where a sequence is shown, tags or fusion partners need not be part of it.

T1: Cbc1, split-tag bait (second purification step) (S. pombe) (UniProt O14253)
T1 sequence: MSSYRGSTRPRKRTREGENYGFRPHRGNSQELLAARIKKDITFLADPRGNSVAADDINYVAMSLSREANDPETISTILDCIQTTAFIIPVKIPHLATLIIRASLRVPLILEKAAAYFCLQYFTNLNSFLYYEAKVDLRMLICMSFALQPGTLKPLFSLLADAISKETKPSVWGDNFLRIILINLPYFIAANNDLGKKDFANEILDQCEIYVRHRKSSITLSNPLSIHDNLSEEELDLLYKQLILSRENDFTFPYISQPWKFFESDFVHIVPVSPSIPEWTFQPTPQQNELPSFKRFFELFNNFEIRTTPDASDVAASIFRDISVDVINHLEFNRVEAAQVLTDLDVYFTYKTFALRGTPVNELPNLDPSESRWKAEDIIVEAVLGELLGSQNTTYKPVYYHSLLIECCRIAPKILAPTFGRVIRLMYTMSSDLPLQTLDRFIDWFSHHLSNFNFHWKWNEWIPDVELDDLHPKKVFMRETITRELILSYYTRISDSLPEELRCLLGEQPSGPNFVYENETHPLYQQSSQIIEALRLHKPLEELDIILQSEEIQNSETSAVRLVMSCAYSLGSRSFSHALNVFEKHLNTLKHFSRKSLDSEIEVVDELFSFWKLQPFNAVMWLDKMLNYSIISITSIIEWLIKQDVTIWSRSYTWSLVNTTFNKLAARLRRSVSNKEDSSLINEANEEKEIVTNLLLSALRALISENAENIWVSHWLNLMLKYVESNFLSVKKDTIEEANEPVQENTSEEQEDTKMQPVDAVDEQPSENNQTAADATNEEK

T2: Pab2, split-tag bait (second purification step) (S. pombe) (UniProt O14327)
T2 sequence: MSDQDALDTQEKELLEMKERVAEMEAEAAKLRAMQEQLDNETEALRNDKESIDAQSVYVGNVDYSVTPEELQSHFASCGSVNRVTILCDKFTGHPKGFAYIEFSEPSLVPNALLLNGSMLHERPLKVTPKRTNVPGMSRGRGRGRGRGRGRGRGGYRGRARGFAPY

T3: Red1–FTP (S. pombe) (UniProt Q9UTR8)
T3 sequence: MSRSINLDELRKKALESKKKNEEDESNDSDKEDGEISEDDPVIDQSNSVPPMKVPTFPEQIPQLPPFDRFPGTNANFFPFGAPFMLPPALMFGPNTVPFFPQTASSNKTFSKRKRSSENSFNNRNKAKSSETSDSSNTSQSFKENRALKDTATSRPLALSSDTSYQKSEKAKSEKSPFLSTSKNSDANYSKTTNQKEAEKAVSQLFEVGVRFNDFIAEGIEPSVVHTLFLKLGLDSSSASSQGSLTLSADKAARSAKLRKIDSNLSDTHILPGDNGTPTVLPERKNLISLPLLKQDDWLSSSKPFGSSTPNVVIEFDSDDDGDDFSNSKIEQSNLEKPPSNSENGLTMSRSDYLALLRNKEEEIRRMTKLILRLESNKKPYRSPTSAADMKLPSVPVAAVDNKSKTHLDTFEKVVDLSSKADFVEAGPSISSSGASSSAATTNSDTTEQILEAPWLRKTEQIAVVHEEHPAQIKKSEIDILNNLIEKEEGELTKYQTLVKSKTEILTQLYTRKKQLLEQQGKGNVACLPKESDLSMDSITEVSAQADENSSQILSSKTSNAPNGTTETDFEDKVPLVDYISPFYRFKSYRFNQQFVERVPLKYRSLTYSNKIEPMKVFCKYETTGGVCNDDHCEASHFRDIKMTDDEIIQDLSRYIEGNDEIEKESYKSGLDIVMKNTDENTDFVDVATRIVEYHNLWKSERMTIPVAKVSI


Assays:
[1] = target: T1, Cbc1, split-tag bait (second purification step) (S. pombe); test: affinity purification with mass spectrometry; split-tag purification: first step by Mtl1, second step by Iss10, Cbc1 or Pab2; from S. pombe cell extract
[2] = target: T2, Pab2, split-tag bait (second purification step) (S. pombe); test: as above
Red1–FTP (S. pombe) = target: T3, Red1–FTP (S. pombe); test: affinity purification with mass spectrometry; tandem affinity purification of an FTP-tagged bait from S. pombe cell extract (IgG beads, TEV cleavage with Benzonase, anti-Flag beads, Flag peptide elution); 50 mM HEPES pH 7.0, 100 mM NaCl, 1.5 mM MgCl2, 0.15% NP-40; MALDI-TOF of single bands and LC-MS/MS of the whole eluate; wild-type cells, also red1Δ and rmn1Δ backgrounds
[3] = target: Mtl1, split-tag bait (first purification step) (S. pombe); test: affinity purification with mass spectrometry; split-tag purification: first step by Mtl1, second step by Iss10, Cbc1 or Pab2; from S. pombe cell extract
[4] = target: Iss10, split-tag bait (second purification step) (S. pombe); test: as above
Mtl1–FTP (S. pombe) = test: affinity purification with mass spectrometry; tandem affinity purification of an FTP-tagged bait from S. pombe cell extract (IgG beads, TEV cleavage with Benzonase, anti-Flag beads, Flag peptide elution); 50 mM HEPES pH 7.0, 100 mM NaCl, 1.5 mM MgCl2, 0.15% NP-40; MALDI-TOF of single bands and LC-MS/MS of the whole eluate; wild-type cells, also red1Δ and rmn1Δ backgrounds
Red5–FTP (S. pombe) = test: as above

binding [1]	binding [2]	binding (Red1–FTP (S. pombe))	binding [3]	binding [4]	binding (Mtl1–FTP (S. pombe))	binding (Red5–FTP (S. pombe))	Molecule
binds	binds	binds	–	–	–	–	Iss10 (S. pombe (endogenous))
binds	binds	–	–	–	–	–	Red5 (S. pombe (endogenous))
binds	binds	–	–	–	–	–	Rmn1 (S. pombe (endogenous))
–	–	–	binds	–	–	–	Cbc1, split-tag bait (second purification step) (protein, UniProt O14253 1-780) MSSYRGSTRPRKRTREGENYGFRPHRGNSQELLAARIKKDITFLADPRGNSVAADDINYVAMSLSREANDPETISTILDCIQTTAFIIPVKIPHLATLIIRASLRVPLILEKAAAYFCLQYFTNLNSFLYYEAKVDLRMLICMSFALQPGTLKPLFSLLADAISKETKPSVWGDNFLRIILINLPYFIAANNDLGKKDFANEILDQCEIYVRHRKSSITLSNPLSIHDNLSEEELDLLYKQLILSRENDFTFPYISQPWKFFESDFVHIVPVSPSIPEWTFQPTPQQNELPSFKRFFELFNNFEIRTTPDASDVAASIFRDISVDVINHLEFNRVEAAQVLTDLDVYFTYKTFALRGTPVNELPNLDPSESRWKAEDIIVEAVLGELLGSQNTTYKPVYYHSLLIECCRIAPKILAPTFGRVIRLMYTMSSDLPLQTLDRFIDWFSHHLSNFNFHWKWNEWIPDVELDDLHPKKVFMRETITRELILSYYTRISDSLPEELRCLLGEQPSGPNFVYENETHPLYQQSSQIIEALRLHKPLEELDIILQSEEIQNSETSAVRLVMSCAYSLGSRSFSHALNVFEKHLNTLKHFSRKSLDSEIEVVDELFSFWKLQPFNAVMWLDKMLNYSIISITSIIEWLIKQDVTIWSRSYTWSLVNTTFNKLAARLRRSVSNKEDSSLINEANEEKEIVTNLLLSALRALISENAENIWVSHWLNLMLKYVESNFLSVKKDTIEEANEPVQENTSEEQEDTKMQPVDAVDEQPSENNQTAADATNEEK
binds	binds	–	–	binds	–	–	Red1 (protein, UniProt Q9UTR8 1-712) MSRSINLDELRKKALESKKKNEEDESNDSDKEDGEISEDDPVIDQSNSVPPMKVPTFPEQIPQLPPFDRFPGTNANFFPFGAPFMLPPALMFGPNTVPFFPQTASSNKTFSKRKRSSENSFNNRNKAKSSETSDSSNTSQSFKENRALKDTATSRPLALSSDTSYQKSEKAKSEKSPFLSTSKNSDANYSKTTNQKEAEKAVSQLFEVGVRFNDFIAEGIEPSVVHTLFLKLGLDSSSASSQGSLTLSADKAARSAKLRKIDSNLSDTHILPGDNGTPTVLPERKNLISLPLLKQDDWLSSSKPFGSSTPNVVIEFDSDDDGDDFSNSKIEQSNLEKPPSNSENGLTMSRSDYLALLRNKEEEIRRMTKLILRLESNKKPYRSPTSAADMKLPSVPVAAVDNKSKTHLDTFEKVVDLSSKADFVEAGPSISSSGASSSAATTNSDTTEQILEAPWLRKTEQIAVVHEEHPAQIKKSEIDILNNLIEKEEGELTKYQTLVKSKTEILTQLYTRKKQLLEQQGKGNVACLPKESDLSMDSITEVSAQADENSSQILSSKTSNAPNGTTETDFEDKVPLVDYISPFYRFKSYRFNQQFVERVPLKYRSLTYSNKIEPMKVFCKYETTGGVCNDDHCEASHFRDIKMTDDEIIQDLSRYIEGNDEIEKESYKSGLDIVMKNTDENTDFVDVATRIVEYHNLWKSERMTIPVAKVSI
binds	binds	binds	binds	binds	binds	–	canonical poly(A) polymerase Pla1 (enzyme, UniProt Q10295 1-566) MTTKQWGITPPISTAPATEQENALNTALINELKNQNLFESPAESEKRVKVLDELQQITTEFVKKVSLAKHMNEKMANEAGGKIFTYGSYRLGVYGPGSDIDTLVVVPKHVSRDNFFQDLEPMLREREEVTDLAAVPDAYVPIIKFKFLGISIDLIFARLSVPRVPRDLELSDNNLLKGVEERCVLSLNGTRVTDQILQLVPNRAVFKHALRAIKFWAQRRAIYANVVGFPGGVAWAMMVARICQLYPNAVSSVIVAKFFRILHQWNWPQPILLKPIEDGPLQVRIWNPKLYPSDKAHRMPIITPAYPSMCATHNITLSTQTIILREMVRAGEIADQIMVKALPWSALFQKHDFFHRYKHYLTITAAAKTAEAQLKWAGLVESKLRHLVTRLELVDAIALAHPFNKGFDKVYNCSSEEEAQQVASGVTLEVAYESTDHEKLANDTVNEEKADNTESKADGSENGEKQIFPVYTTTCYIGLELEKKKGHPIKRLDISWPTQEFYELCKKWDKYDDTLMNVFIKNTKNTALPDEVFEPGEERPKATKKRSTADTAHSTEQLKRQKVSTA
binds	–	binds	binds	binds	binds	binds	Pab2 (protein, UniProt O14327 1-166) MSDQDALDTQEKELLEMKERVAEMEAEAAKLRAMQEQLDNETEALRNDKESIDAQSVYVGNVDYSVTPEELQSHFASCGSVNRVTILCDKFTGHPKGFAYIEFSEPSLVPNALLLNGSMLHERPLKVTPKRTNVPGMSRGRGRGRGRGRGRGRGGYRGRARGFAPY
–	–	–	binds	–	–	–	Pab2, split-tag bait (second purification step) (protein, UniProt O14327 1-166) MSDQDALDTQEKELLEMKERVAEMEAEAAKLRAMQEQLDNETEALRNDKESIDAQSVYVGNVDYSVTPEELQSHFASCGSVNRVTILCDKFTGHPKGFAYIEFSEPSLVPNALLLNGSMLHERPLKVTPKRTNVPGMSRGRGRGRGRGRGRGRGGYRGRARGFAPY
–	–	–	–	–	binds	–	mRNA cleavage factor complex subunit SPBC660.15 (protein, UniProt O94432 1-474) MGGSDFEDDELFKDLYGEENEKKVESASGNQETSNVTPTKENEGYEELEKSGEAGAERTKENPFREEPGADFDRSGSDQQYSAEAEANQEDDLNETSQQAPDPSSYDIRGQALSSATWDNAEDGENSKNDNYNENQSALTGSGAMESNEDNAEETSPFNREDGKMFIGGLNWETTDDSLRDYFEQFGEVLDCTVMRDSTTGRSRGFGFLTFKNPKCVNEVMSKEHHLDGKIIDPKRAIPREEQEKTAKMFVGGVPGDCTEEEFRNFFNQFGRVLDATLMMDKDTGRPRGFGFVTYENESAVEATMSQPYITIHGKPVEVKRATPKASLRDSHDRHQHGYHGNANPYYAQNMNMYGGMTPAMMAQYYRQMQQYMEAMRNMPAAAGAVPYPQPVMPAGMADWQQQQQQGAAYFDPSKMNQGTGDGVPFSPSMPSGSSRGGYHGRNPGGPNRQRYRGRRDGRGGNTGGGHSFHPYRR
